Data as given in PubChem BioAssay AID504764 (Drosophila RNAi Screening Center, 2011).
The deposit covers about 22,000 reagents; shown is a random part of those that have a named target and a result. Of all reagents, 403 (1.9%) are marked active. 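Unnormalised raw counts per well; ratio z-scores behind the hit calls and whether each hit raises or lowers signal are not deposited.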 Entries without a mark were called inactive. Reagents against one gene are numbered here. Not stated in the record: the amount of reagent.

Purpose: 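Genome-wide screen for regulators of Notch-driven gene expression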 (primary screen)
System: Drosophila Kc167 cells
Reagent: long dsRNA against Drosophila genes
Time to read-out: about 5 days (4 days dsRNA, then 24 h after transfection)
Challenge: transfection of constitutively active membrane-tethered Notch lacking the extracellular domain, read 24 h later
Detection: 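Light from a Notch-responsive E(spl)m3 luciferase reporter under active Notch, with control-promoter and no-Notch reporter wells to normalise; raw counts from paired wells a and b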
Reading the numbers: induced reporter light, run 1, well a and induced reporter light, run 1, well b: higher = more light from the Notch target reporter with active Notch; control promoter light, run 1, well a and control promoter light, run 1, well b: higher = more light from the viral control promoter (cell number, transfection, viability); uninduced reporter light, run 1, well a: higher = more light from the Notch target reporter without active Notch
Hit rule: 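Wells with low control signal or poorly matching duplicates excluded; duplicates averaged; per source plate, z beyond ±2 for induced/control log2 ratio or beyond ±1.8 for induced/uninduced marks a hit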
Calls: active = modifier hit (raised or lowered Notch signal); inactive = not a hit

xmas-1 (retired record) | induced reporter light, run 1, well a: 72435; induced reporter light, run 1, well b: 72760; control promoter light, run 1, well a: 78355; control promoter light, run 1, well b: 82925; uninduced reporter light, run 1, well a: 10510
CG13287 | induced reporter light, run 1, well a: 1.62e5; induced reporter light, run 1, well b: 1.45e5; control promoter light, run 1, well a: 2.44e5; control promoter light, run 1, well b: 1.91e5; uninduced reporter light, run 1, well a: 9742
SmydA-9 (SET and MYND domain containing, arthropod-specific, member 9) | induced reporter light, run 1, well a: 73885; induced reporter light, run 1, well b: 77850; control promoter light, run 1, well a: 1.18e5; control promoter light, run 1, well b: 1.46e5; uninduced reporter light, run 1, well a: 5425
Dora (Dorado) #1 | induced reporter light, run 1, well a: 48060; induced reporter light, run 1, well b: 53300; control promoter light, run 1, well a: 43540; control promoter light, run 1, well b: 50380; uninduced reporter light, run 1, well a: 11305
Dora (Dorado) #2 | induced reporter light, run 1, well a: 82855; induced reporter light, run 1, well b: 1.02e5; control promoter light, run 1, well a: 66255; control promoter light, run 1, well b: 80745; uninduced reporter light, run 1, well a: 11020
Dora (Dorado) #3 | induced reporter light, run 1, well a: 75060; induced reporter light, run 1, well b: 92940; control promoter light, run 1, well a: 72555; control promoter light, run 1, well b: 86405; uninduced reporter light, run 1, well a: 10350
Dora (Dorado) #4 | induced reporter light, run 1, well a: 21388; induced reporter light, run 1, well b: 23370; control promoter light, run 1, well a: 12665; control promoter light, run 1, well b: 11350; uninduced reporter light, run 1, well a: 7645
CG17666 | induced reporter light, run 1, well a: 1.96e5; induced reporter light, run 1, well b: 1.56e5; control promoter light, run 1, well a: 2.54e5; control promoter light, run 1, well b: 2.11e5; uninduced reporter light, run 1, well a: 8255
CG11842 | induced reporter light, run 1, well a: 3.06e5; induced reporter light, run 1, well b: 3.38e5; control promoter light, run 1, well a: 3.72e5; control promoter light, run 1, well b: 3.57e5; uninduced reporter light, run 1, well a: 22435
Tret1-1 (Trehalose transporter 1-1) #1 | induced reporter light, run 1, well a: 1.05e5; induced reporter light, run 1, well b: 1.12e5; control promoter light, run 1, well a: 1.42e5; control promoter light, run 1, well b: 1.40e5; uninduced reporter light, run 1, well a: 11828
Tret1-1 (Trehalose transporter 1-1) #2 | induced reporter light, run 1, well a: 1.09e5; induced reporter light, run 1, well b: 1.14e5; control promoter light, run 1, well a: 1.66e5; control promoter light, run 1, well b: 1.55e5; uninduced reporter light, run 1, well a: 10625
CG32452 | induced reporter light, run 1, well a: 2.44e5; induced reporter light, run 1, well b: 1.80e5; control promoter light, run 1, well a: 3.24e5; control promoter light, run 1, well b: 2.10e5; uninduced reporter light, run 1, well a: 16890

Sorted by “induced reporter light, run 1, well a” (low to high): some entries from above
Tret1-1 (Trehalose transporter 1-1) #1 | induced reporter light, run 1, well a: 1.05e5; induced reporter light, run 1, well b: 1.12e5; control promoter light, run 1, well a: 1.42e5; control promoter light, run 1, well b: 1.40e5; uninduced reporter light, run 1, well a: 11828
Tret1-1 (Trehalose transporter 1-1) #2 | induced reporter light, run 1, well a: 1.09e5; induced reporter light, run 1, well b: 1.14e5; control promoter light, run 1, well a: 1.66e5; control promoter light, run 1, well b: 1.55e5; uninduced reporter light, run 1, well a: 10625
